Source: patent US10702518B2, “TAF1 inhibitors for the therapy of cancer” (CeMM—Forschungszentrum für Molekulare Medizin GmbH, priority 2016, dated 2020)

Test system: REDS3 cells
Experiment: RFP reporter expression in REDS3 cells (live cell imaging)
Format: cell-based, human
Protocol: Cells were seeded on clear flat bottom 96-well or 384-well plates (Corning) and treated with the indicated compounds for the specified conditions. Live cell imaging pictures were taken with the Operetta High Content Screening System (PerkinElmer), 20× objective and non-confocal mode.
Only RFP-positive nuclei were detected and counted.
The increase of RFP fluorescence, detected with the Operetta High Content Screening System (PerkinElmer), 20× objective and non-confocal mode, was used as read-out.
Briefly, the screening was divided in three parts called respectively 1) primary screening, 2) follow up and 3) validation. During the primary screening REDS3 cells were treated with 10 μM of every compound, and live cell imaging pictures were taken in order to assess their ability to induce RFP expression 24 hours later.

| Compound | RFP expression in REDS3 cells | confirmed screening hit (RFP induction in REDS3 screen) (library screen of 89,355 small molecules, 24 hours) |
| --- | --- | --- |
| Cc1nnc2ccc(NCCC3=CCCCC3)nn12 [CeMMEC2] | expressed RFP detected by live cell imaging in a dose-dependent manner |  |
| CCNC(=O)C[C@@H]1N=C(c2ccc(Cl)cc2)c2cc(OC)ccc2-n2c(C)nnc21 [I-BET-762] |  | part of this group |
